Laboratory results from paper PMC4442312 (eLife, 2015).
No constants are given. Whether binding was seen depends on the method and setting. For part of these data: Binding seen in cells or lysates may run through a third protein. Some results given as binding are weak or reduced against the parent protein; the word gives no strength. For part of these data: Where a sequence is shown, tags or fusion partners need not be part of it. One block for each binder: values may come before it.

Protein sequences, listed by entry. Tags and fused reporters are not part of them. Lines headed by an entry give the natural chain unless they say otherwise; changes in a name come on top.
UniProt Q96KQ7: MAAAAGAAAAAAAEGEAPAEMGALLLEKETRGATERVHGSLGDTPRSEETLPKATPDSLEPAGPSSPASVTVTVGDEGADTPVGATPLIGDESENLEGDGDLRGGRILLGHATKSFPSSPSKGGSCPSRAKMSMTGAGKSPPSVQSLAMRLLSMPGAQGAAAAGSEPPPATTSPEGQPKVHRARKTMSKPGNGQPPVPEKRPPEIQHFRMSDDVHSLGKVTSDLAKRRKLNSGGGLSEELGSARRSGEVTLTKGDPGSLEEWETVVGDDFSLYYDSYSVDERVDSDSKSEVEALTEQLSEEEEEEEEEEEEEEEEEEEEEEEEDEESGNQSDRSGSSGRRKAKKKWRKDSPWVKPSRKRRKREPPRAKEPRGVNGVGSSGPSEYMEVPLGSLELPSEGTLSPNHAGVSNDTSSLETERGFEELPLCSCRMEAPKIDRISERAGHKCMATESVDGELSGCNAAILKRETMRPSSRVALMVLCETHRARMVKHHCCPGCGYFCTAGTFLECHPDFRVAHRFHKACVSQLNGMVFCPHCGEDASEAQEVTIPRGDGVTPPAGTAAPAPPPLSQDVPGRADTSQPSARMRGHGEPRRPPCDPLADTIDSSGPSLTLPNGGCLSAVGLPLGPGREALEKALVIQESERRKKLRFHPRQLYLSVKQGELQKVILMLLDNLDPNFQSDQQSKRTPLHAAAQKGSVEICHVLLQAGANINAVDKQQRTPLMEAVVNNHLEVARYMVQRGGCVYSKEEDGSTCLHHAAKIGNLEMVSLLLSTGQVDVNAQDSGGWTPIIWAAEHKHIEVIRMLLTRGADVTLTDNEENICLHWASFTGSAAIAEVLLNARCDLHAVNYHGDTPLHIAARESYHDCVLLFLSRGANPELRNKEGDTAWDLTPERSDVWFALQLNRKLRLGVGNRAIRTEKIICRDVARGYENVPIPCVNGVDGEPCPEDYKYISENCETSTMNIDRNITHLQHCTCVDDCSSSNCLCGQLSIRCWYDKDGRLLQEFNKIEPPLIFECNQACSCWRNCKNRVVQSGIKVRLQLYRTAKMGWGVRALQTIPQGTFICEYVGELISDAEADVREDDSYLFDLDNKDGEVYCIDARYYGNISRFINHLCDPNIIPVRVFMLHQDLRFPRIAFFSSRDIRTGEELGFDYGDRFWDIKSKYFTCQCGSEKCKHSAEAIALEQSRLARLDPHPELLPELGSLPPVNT
UniProt Q9Z148: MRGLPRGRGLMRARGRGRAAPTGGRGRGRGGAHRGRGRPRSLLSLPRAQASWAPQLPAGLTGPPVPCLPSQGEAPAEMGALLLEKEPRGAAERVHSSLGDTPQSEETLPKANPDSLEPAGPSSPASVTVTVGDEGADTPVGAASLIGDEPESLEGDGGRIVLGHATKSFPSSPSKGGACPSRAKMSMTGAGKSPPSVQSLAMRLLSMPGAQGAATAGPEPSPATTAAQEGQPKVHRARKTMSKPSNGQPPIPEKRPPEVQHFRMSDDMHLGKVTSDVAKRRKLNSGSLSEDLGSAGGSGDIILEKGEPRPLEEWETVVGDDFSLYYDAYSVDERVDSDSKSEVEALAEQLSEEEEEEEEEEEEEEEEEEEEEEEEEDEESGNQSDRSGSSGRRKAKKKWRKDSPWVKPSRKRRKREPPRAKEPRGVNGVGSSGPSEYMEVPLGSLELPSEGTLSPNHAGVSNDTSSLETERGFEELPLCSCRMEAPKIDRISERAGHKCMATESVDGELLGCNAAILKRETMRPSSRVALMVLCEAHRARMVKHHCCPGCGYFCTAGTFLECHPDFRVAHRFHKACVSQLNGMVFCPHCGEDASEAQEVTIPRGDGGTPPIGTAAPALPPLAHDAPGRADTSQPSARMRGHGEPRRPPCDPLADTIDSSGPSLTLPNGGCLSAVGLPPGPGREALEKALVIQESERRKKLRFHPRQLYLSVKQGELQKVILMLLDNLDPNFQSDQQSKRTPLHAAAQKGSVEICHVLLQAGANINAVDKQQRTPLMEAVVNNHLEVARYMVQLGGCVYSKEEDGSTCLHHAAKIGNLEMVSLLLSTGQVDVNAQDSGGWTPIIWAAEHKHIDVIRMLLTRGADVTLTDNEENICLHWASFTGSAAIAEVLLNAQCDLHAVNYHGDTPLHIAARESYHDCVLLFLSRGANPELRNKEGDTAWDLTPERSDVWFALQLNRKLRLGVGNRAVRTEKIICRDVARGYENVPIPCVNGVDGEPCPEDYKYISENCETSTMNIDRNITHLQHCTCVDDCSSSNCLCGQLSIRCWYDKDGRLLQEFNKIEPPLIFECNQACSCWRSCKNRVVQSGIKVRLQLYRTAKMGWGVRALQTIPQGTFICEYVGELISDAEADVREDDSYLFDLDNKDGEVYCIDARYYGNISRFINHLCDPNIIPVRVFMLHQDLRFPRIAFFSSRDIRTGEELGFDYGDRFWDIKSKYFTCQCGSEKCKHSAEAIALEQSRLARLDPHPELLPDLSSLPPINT

Experiments:
[1] = biological target: T1, T7-ORCA (full-length) (human) (UniProt Q9UFC0); assay: co-IP; co-IP after Benzonase treatment of the lysate (1000 U, 20 min RT); data not shown
T1 sequence: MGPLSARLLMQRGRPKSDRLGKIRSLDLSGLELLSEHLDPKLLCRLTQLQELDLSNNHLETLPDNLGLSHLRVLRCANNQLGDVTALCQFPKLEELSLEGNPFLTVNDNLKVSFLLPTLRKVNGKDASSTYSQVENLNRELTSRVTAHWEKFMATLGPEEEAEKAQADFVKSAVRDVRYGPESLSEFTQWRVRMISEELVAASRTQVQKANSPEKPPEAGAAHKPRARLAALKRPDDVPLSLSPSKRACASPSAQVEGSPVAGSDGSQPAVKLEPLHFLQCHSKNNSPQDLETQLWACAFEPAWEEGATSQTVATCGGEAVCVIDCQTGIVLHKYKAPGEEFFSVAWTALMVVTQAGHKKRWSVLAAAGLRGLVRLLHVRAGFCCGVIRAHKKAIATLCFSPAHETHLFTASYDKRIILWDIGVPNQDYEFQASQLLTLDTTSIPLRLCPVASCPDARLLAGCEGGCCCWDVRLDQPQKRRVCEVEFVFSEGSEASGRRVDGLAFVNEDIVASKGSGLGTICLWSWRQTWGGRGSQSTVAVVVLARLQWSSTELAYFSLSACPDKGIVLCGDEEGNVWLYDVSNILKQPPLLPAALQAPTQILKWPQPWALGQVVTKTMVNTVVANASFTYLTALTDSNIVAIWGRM

[2] = biological target: HA-G9a (full length) (human) (UniProt Q96KQ7); assay: co-IP; sequential IP from triply transfected U2OS: HA IP, HA peptide elution, then T7 antibody IP; immunoblot
[3] = biological target: T1, T7-ORCA (full-length) (human); assay: as above
[4] = biological target: T1, T7-ORCA (full-length) (human); assay: co-IP; T7 antibody IP from co-transfected cells in the presence of ethidium bromide (50 μg/ml in lysate, 80 μg/ml in washes)
[5] = biological target: HA-G9a (full length) (human) (UniProt Q96KQ7); assay: co-IP; transient co-transfection in U2OS; IP buffer 50 mM Tris pH 7.4, 150 mM NaCl, 10% glycerol, 0.1% NP-40, 1 mM DTT; antibody-conjugated agarose (ORCA, T7 or HA antibody) overnight; immunoblot; for G9a-Suv39H1 also in control and ORCA siRNA cells
[6] = biological target: T1, T7-ORCA (full-length) (human); assay: as above
[7] = biological target: T2, T7-ORCA (128–647) (human) (UniProt Q9UFC0); assay: as above
T2 sequence: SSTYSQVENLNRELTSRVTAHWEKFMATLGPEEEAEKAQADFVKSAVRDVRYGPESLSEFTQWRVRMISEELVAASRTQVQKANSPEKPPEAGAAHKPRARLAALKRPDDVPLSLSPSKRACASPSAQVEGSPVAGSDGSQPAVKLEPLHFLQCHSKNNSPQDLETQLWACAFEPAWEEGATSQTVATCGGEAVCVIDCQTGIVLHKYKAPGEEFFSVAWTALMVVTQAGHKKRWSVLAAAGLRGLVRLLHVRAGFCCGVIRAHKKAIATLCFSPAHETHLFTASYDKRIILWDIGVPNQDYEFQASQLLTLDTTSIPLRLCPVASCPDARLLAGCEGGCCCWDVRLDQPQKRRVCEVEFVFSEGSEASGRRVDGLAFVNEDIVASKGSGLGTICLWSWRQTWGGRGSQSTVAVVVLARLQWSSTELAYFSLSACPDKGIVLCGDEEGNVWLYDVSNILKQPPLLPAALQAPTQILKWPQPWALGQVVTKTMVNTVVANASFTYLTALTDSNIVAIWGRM

[8] = biological target: T3, T7-ORCA (1–127) (human) (UniProt Q9UFC0); assay: as above
T3 sequence: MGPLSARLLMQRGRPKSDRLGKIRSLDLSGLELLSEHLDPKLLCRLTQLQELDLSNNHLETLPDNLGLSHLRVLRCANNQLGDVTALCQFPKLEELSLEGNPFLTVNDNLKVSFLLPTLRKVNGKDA

[9] = biological target: T4, T7-ORCA (1–270) (human) (UniProt Q9UFC0); assay: as above
T4 sequence: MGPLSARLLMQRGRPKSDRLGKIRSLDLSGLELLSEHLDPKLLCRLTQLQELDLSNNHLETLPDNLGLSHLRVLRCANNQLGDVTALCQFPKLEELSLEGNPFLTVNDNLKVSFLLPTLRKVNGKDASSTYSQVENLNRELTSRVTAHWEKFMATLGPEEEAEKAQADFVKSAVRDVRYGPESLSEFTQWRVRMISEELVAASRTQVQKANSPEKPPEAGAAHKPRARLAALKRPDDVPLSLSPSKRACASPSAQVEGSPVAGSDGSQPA

[10] = biological target: T5, T7-ORCA (270–647) (human) (UniProt Q9UFC0); assay: as above
T5 sequence: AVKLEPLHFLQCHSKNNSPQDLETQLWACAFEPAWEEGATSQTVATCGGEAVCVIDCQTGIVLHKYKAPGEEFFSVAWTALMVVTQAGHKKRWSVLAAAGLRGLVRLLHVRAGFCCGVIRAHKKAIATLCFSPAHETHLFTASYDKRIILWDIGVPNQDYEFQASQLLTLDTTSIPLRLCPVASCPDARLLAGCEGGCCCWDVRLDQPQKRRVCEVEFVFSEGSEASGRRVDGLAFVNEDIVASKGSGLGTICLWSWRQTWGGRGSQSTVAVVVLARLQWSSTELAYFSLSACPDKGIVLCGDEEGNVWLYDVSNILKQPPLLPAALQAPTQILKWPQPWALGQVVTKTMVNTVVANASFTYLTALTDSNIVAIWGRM

[11] = biological target: G9a, endogenous in U2OS (human (endogenous in U2OS)) (UniProt Q96KQ7); assay: co-IP; endogenous proteins from U2OS cells; IP with ORCA antibody or G9a antibody, immunoblot; also in cells expressing HA-Suv39H1 or HA-G9a
[12] = biological target: YFP-LacI-G9a-H1166K (mouse) (UniProt Q9Z148); assay: LacI tethering to a lac operator array (CLTon locus), recruitment seen by fluorescence microscopy; U2OS 2-6-3 CLTon cells, condensed heterochromatic locus (no doxycycline); LacI fusion tethered, fluorescent partner scored at the locus

B1: Flag-Suv39H1 (enzyme, UniProt O43463 1-412)
chain: MAENLKGCSVCCKSSWNQLQDLCRLAKLSCPALGISKRNLYDFEVEYLCDYKKIREQEYYLVKWRGYPDSESTWEPRQNLKCVRILKQFHKDLERELLRRHHRSKTPRHLDPSLANYLVQKAKQRRALRRWEQELNAKRSHLGRITVENEVDLDGPPRAFVYINEYRVGEGITLNQVAVGCECQDCLWAPTGGCCPGASLHKFAYNDQGQVRLRAGLPIYECNSRCRCGYDCPNRVVQKGIRYDLCIFRTDDGRGWGVRTLEKIRKNSFVMEYVGEIITSEEAERRGQIYDRQGATYLFDLDYVEDVYTVDAAYYGNISHFVNHSCDPNLQVYNVFIDNLDERLPRIAFFATRTIRAGEELTFDYNMQVDPVDMESTRMDSNFGLAGLPGSPKKRVRIECKCGTESCRKYLF
binding [1]: binds | binding [2]: binds | binding [3]: binds | binding [4]: binds | binding [5]: binds | binding [6]: binds

B4: CFP-ORCA (protein, UniProt Q9UFC0 1-647)
chain: MGPLSARLLMQRGRPKSDRLGKIRSLDLSGLELLSEHLDPKLLCRLTQLQELDLSNNHLETLPDNLGLSHLRVLRCANNQLGDVTALCQFPKLEELSLEGNPFLTVNDNLKVSFLLPTLRKVNGKDASSTYSQVENLNRELTSRVTAHWEKFMATLGPEEEAEKAQADFVKSAVRDVRYGPESLSEFTQWRVRMISEELVAASRTQVQKANSPEKPPEAGAAHKPRARLAALKRPDDVPLSLSPSKRACASPSAQVEGSPVAGSDGSQPAVKLEPLHFLQCHSKNNSPQDLETQLWACAFEPAWEEGATSQTVATCGGEAVCVIDCQTGIVLHKYKAPGEEFFSVAWTALMVVTQAGHKKRWSVLAAAGLRGLVRLLHVRAGFCCGVIRAHKKAIATLCFSPAHETHLFTASYDKRIILWDIGVPNQDYEFQASQLLTLDTTSIPLRLCPVASCPDARLLAGCEGGCCCWDVRLDQPQKRRVCEVEFVFSEGSEASGRRVDGLAFVNEDIVASKGSGLGTICLWSWRQTWGGRGSQSTVAVVVLARLQWSSTELAYFSLSACPDKGIVLCGDEEGNVWLYDVSNILKQPPLLPAALQAPTQILKWPQPWALGQVVTKTMVNTVVANASFTYLTALTDSNIVAIWGRM
binding [12]: no binding

Other lines, results leading:

binding [7]: binds | binding [8]: no binding | binding [9]: no binding | binding [10]: binds
B2: HA-Suv39H1 (full length) (enzyme, UniProt O43463 1-412)
chain: MAENLKGCSVCCKSSWNQLQDLCRLAKLSCPALGISKRNLYDFEVEYLCDYKKIREQEYYLVKWRGYPDSESTWEPRQNLKCVRILKQFHKDLERELLRRHHRSKTPRHLDPSLANYLVQKAKQRRALRRWEQELNAKRSHLGRITVENEVDLDGPPRAFVYINEYRVGEGITLNQVAVGCECQDCLWAPTGGCCPGASLHKFAYNDQGQVRLRAGLPIYECNSRCRCGYDCPNRVVQKGIRYDLCIFRTDDGRGWGVRTLEKIRKNSFVMEYVGEIITSEEAERRGQIYDRQGATYLFDLDYVEDVYTVDAAYYGNISHFVNHSCDPNLQVYNVFIDNLDERLPRIAFFATRTIRAGEELTFDYNMQVDPVDMESTRMDSNFGLAGLPGSPKKRVRIECKCGTESCRKYLF

binding [11]: binds
B3: origin recognition complex-associated protein (ORCA/LRWD1), endogenous in U2OS (protein, UniProt Q9UFC0 1-647)
chain: MGPLSARLLMQRGRPKSDRLGKIRSLDLSGLELLSEHLDPKLLCRLTQLQELDLSNNHLETLPDNLGLSHLRVLRCANNQLGDVTALCQFPKLEELSLEGNPFLTVNDNLKVSFLLPTLRKVNGKDASSTYSQVENLNRELTSRVTAHWEKFMATLGPEEEAEKAQADFVKSAVRDVRYGPESLSEFTQWRVRMISEELVAASRTQVQKANSPEKPPEAGAAHKPRARLAALKRPDDVPLSLSPSKRACASPSAQVEGSPVAGSDGSQPAVKLEPLHFLQCHSKNNSPQDLETQLWACAFEPAWEEGATSQTVATCGGEAVCVIDCQTGIVLHKYKAPGEEFFSVAWTALMVVTQAGHKKRWSVLAAAGLRGLVRLLHVRAGFCCGVIRAHKKAIATLCFSPAHETHLFTASYDKRIILWDIGVPNQDYEFQASQLLTLDTTSIPLRLCPVASCPDARLLAGCEGGCCCWDVRLDQPQKRRVCEVEFVFSEGSEASGRRVDGLAFVNEDIVASKGSGLGTICLWSWRQTWGGRGSQSTVAVVVLARLQWSSTELAYFSLSACPDKGIVLCGDEEGNVWLYDVSNILKQPPLLPAALQAPTQILKWPQPWALGQVVTKTMVNTVVANASFTYLTALTDSNIVAIWGRM
